Where a name gives a salt, the structure may show the parent alone. This is one part of the list. Many values rest on one well or one pass, so single values are uncertain.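 Labelled rat cortical synaptosomes were engulfed by primary human fetal astrocytes. Engulfment equaled a red/green ratio, corrected for calcein live-cell signal and normalized to the plate median. Compounds were toxic when calcein dropped over 30%, and reduced phagocytosis when below 70% of the median above 5 µM.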
Assays:
Human fetal astrocytes [1] = test: loss of total cells relative to no-compound high-control median (toxicity); higher = more toxic (fewer cells); conditions: 24 h
Human fetal astrocytes [2] = test: synaptosome phagocytosis (pHrodo/calcein intensity ratio) relative to plate median of data wells; higher = more phagocytosis; conditions: 24 h

SMILES	loss of total cells (Human fetal astrocytes [1]; 1.39 µM)	loss of total cells (Human fetal astrocytes [1]; 2.78 µM)	loss of total cells (Human fetal astrocytes [1]; 5.56 µM)	loss of total cells (Human fetal astrocytes [1]; 11.11 µM)	loss of total cells (Human fetal astrocytes [1]; 22.22 µM)	synaptosome phagocytosis (Human fetal astrocytes [2]; 1.39 µM)	synaptosome phagocytosis (Human fetal astrocytes [2]; 2.78 µM)	synaptosome phagocytosis (Human fetal astrocytes [2]; 5.56 µM)	synaptosome phagocytosis (Human fetal astrocytes [2]; 11.11 µM)	synaptosome phagocytosis (Human fetal astrocytes [2]; 22.22 µM)
c1ccc(CN2CCC3(CCCc4ccccc43)CC2)cc1 [L-687,384 hydrochloride]	-6.2%	6.8%	-5.2%	4.8%	7.5%	104%	89.5%	46.6%	72.7%	85.2%
COc1cc(=O)n(C)c2c(OCC(O)C(C)(C)O)cccc12 (stereo not given) [Foliosidine]	2.9%	-4.3%	5.8%	3.1%	12%	114%	130%	102%	128%	142%
CC(C)(C)[C@]1(O)CCN2C[C@H]3c4ccccc4CCc4cccc(c43)[C@@H]2C1 [(+)-Butaclamol hydrochloride]	-3.8%	-0.9%	-4.1%	-13%	-20.8%	88.2%	109%	80%	89.2%	63.2%
C=CCN1CCc2cc(O)c(O)cc2C(c2ccccc2)C1 (racemic)	-2.2%	-11.1%	-5.6%	-13.4%	-18.9%	126%	78.1%	117%	114%	71.2%
OCCN1CCN(CC/C=C2/c3ccccc3Sc3ccc(C(F)(F)F)cc32)CC1 [cis-(Z)-Flupenthixol dihydrochloride]	2.1%	-19.7%	-2.5%	0.4%	20.8%	83.4%	104%	119%	80.2%	88.4%
CC1(C)CCC(NC(=O)[C@@H](N)CCC(=O)O)CC1	-21.3%	1.4%	-2.3%	15.2%	12.1%	76.1%	122%	123%	110%	116%
O=C(CCCN1CCC(O)(c2cccc(C(F)(F)F)c2)CC1)c1ccc(F)cc1 [Trifluperidol hydrochloride]	-14%	-29.6%	-1.7%	-1.1%	-12.3%	91.3%	111%	98.1%	101%	78.7%
C[C@]12CCC(=O)C=C1CC[C@@H]1[C@@H]2[C@@H](O)C[C@@]2(C)[C@H]1CC[C@]2(O)C(=O)CO [Hydrocortisone]	15.5%	0.9%	2.5%	1.3%	4%	122%	109%	102%	127%	118%
c1cc(CN2CCCCC2)cc(OCCCNc2nc3ccccc3s2)c1	-17.1%	-32.6%	-8.4%	8%	-9.9%	60%	90.2%	97.9%	101%	79.1%
CC(=O)N1CCN(c2ccc(OCC3COC(Cn4ccnc4)(c4ccc(Cl)cc4Cl)O3)cc2)CC1 (stereo not given) [Ketoconazole]	4.3%	-4.1%	-3.3%	20%	32.7%	96.5%	96%	117%	102%	88.4%
Oc1ccc(Cn2cc[nH]c2=S)cc1 [1-(4-Hydroxybenzyl)imidazole-2-thiol]	-5.4%	-15.4%	-17.3%	-19.3%	-15.2%	119%	135%	108%	134%	120%
CC[C@H](CO)Nc1nc(NCc2ccccc2)c2ncn(C(C)C)c2n1 [Roscovitine]	-13.4%	-5.7%	-0.6%	1.1%	-1.6%	126%	107%	110%	88.4%	60.6%
CC(C)NC[C@@H](O)COc1ccc(CC(N)=O)cc1 [R(+)-Atenolol]	-9.2%	-12.3%	-15.2%	-11.2%	-11.7%	93%	112%	129%	102%	100%
COc1cccc(OC)c1OCCNCC1COc2ccccc2O1 (stereo not given) [WB-4101 hydrochloride]	-8.8%	-17.1%	-6.6%	-9.4%	1.6%	117%	81.1%	86.3%	63.5%	92.1%
CO/N=C(\C(=O)N[C@@H]1C(=O)N2C(C(=O)O)=C(COC(C)=O)CS[C@H]12)c1csc(N)n1 [Cefotaxime sodium]	-22%	-9.9%	-15.2%	-22.9%	-18.4%	119%	104%	100%	90.1%	95.9%
O=C(O)/C(=C\c1c(C(=O)O)[nH]c2cc(Cl)cc(Cl)c12)c1ccccc1	-8.1%	-6.8%	5.2%	-4.8%	20.6%	123%	136%	109%	94.3%	143%
CNCCCC12CCC(c3ccccc31)c1ccccc12 [Maprotiline hydrochloride]	-4.3%	23.1%	13.6%	22.9%	11.2%	91.3%	121%	123%	72.3%	83%
CC(C)(C)NCC(O)c1cc(O)cc(O)c1 (stereo not given) [Terbutaline hemisulfate]	-32.6%	-15.3%	-3.9%	1.1%	-23%	101%	105%	102%	93.6%	97.3%
Cn1c(=O)c2[nH]c(-c3ccccc3)nc2n(C)c1=O [1,3-Dimethyl-8-phenylxanthine]	0.5%	-3.2%	-8%	18.1%	28%	102%	90.3%	123%	94.9%	120%
C=Cc1c(C)c2cc3[nH]c(cc4nc(cc5nc(cc1[nH]2)C(C)=C5CCC(=O)O)C(CCC(=O)O)=C4C)c(C)c3C=C [Protoporphyrin IX disodium]	0.3%	-21.3%	10.7%	5.7%	1.6%	114%	102%	115%	69.8%	92.2%

Two of the compounds above, with bars between the fields:
SMILES | loss of total cells (Human fetal astrocytes [1]; 1.39 µM) | loss of total cells (Human fetal astrocytes [1]; 2.78 µM) | loss of total cells (Human fetal astrocytes [1]; 5.56 µM) | loss of total cells (Human fetal astrocytes [1]; 11.11 µM) | loss of total cells (Human fetal astrocytes [1]; 22.22 µM) | synaptosome phagocytosis (Human fetal astrocytes [2]; 1.39 µM) | synaptosome phagocytosis (Human fetal astrocytes [2]; 2.78 µM) | synaptosome phagocytosis (Human fetal astrocytes [2]; 5.56 µM) | synaptosome phagocytosis (Human fetal astrocytes [2]; 11.11 µM) | synaptosome phagocytosis (Human fetal astrocytes [2]; 22.22 µM)
Oc1ccc(Cn2cc[nH]c2=S)cc1 [1-(4-Hydroxybenzyl)imidazole-2-thiol] | -5.4% | -15.4% | -17.3% | -19.3% | -15.2% | 119% | 135% | 108% | 134% | 120%
CC[C@H](CO)Nc1nc(NCc2ccccc2)c2ncn(C(C)C)c2n1 [Roscovitine] | -13.4% | -5.7% | -0.6% | 1.1% | -1.6% | 126% | 107% | 110% | 88.4% | 60.6%
